Patent US6664036B1, “Homogeneous single-part color developer per color film processing and method of using same” (priority 2002, dated 2003)

Key:
[1] = Sensitometric effect of co-solvents, density deviation from standard C-41 process; details: KODAK MAX 400
[2] = as above; details: KODAK Advantix 200
[3] = as above; details: AGFA HDC PLUS 400
[4] = 9.0 g/l co-solvent, antioxidant 4.0 g/l AO-1, Process 3 minus Process 1
[5] = 35 g/l co-solvent, antioxidant 2.0 g/l HAS, Process 2 minus Process 1
[6] = 9.0 g/l co-solvent, antioxidant 7.1 g/l AO-1, Process 3 minus Process 1

Cc1ccc(C(=O)O)cc1 [CS-2, p-Toluic acid]
Sum of Absolute Value of R,G,B Density Deviations (over 21 steps) [1, 4]: 1.854
Sum of Absolute Value of R,G,B Density Deviations (over 21 steps) [2, 4]: 1.615
Sum of Absolute Value of R,G,B Density Deviations (over 21 steps) [3, 4]: 1.351

OCCOCCO [Comp-8, Diethylene glycol, reference compound]
Sum of Absolute Value of R,G,B Density Deviations (over 21 steps) [1, 5]: 2.285
Sum of Absolute Value of R,G,B Density Deviations (over 21 steps) [2, 5]: 2.374
Sum of Absolute Value of R,G,B Density Deviations (over 21 steps) [3, 5]: 3.689

O=C([O-])c1ccccc1.[Na+] [Sodium Benzoate]
Sum of Absolute Value of R,G,B Density Deviations (over 21 steps) [1, 6]: 0.997
Sum of Absolute Value of R,G,B Density Deviations (over 21 steps) ([1]; 9.0 g/l co-solvent, antioxidant 8.42 g/l AO-2, Process 3 minus Process 1): 1.45
Sum of Absolute Value of R,G,B Density Deviations (over 21 steps) [2, 6]: 1.18
Sum of Absolute Value of R,G,B Density Deviations (over 21 steps) ([3]; 9.0 g/l co-solvent, antioxidant 7.0 g/l AO-1, Process 3 minus Process 1): 2.476
